Test results from patent US9035085B2, “Aryl ketone compounds and compositions for delivering active agents” (EMISPHERE TECHNOLOGIES, INC., priority 2004, dated 2015).
Values joined by “and” are separate entries in the source; they are usually repeats but may differ in a detail not shown here. Equal values may be shown once. At least one read-out could not be matched to a standard name with certainty.

Test: Insulin oral delivery in rats (blood glucose)
Format: in vivo, Male Sprague-Dawley rats
Settings: delivery agent 200 mg/kg with insulin 0.50 mg/kg, 1 ml/kg
Excerpt: The typical dosing and sampling protocols were as follows.

## O=C(O)CCCCCC(=O)c1ccccc1 [Compound 27]
  % Change in Glucose (from control): −53.0% and −54.7% and −54.9%
